Patent US20200362174A1, “COMPOUNDS AND METHODS FOR OPTICAL SENSING OF ELECTRICAL ACTIVITY IN BIOLOGICAL SYSTEMS” (UNIVERSITY OF CONNECTICUT, priority 2018, published 2020)

experiment: voltage sensitivity testing on the voltage clamped hemispherical lipid bilayer (HLB) apparatus

Compound	wavelength dependence of the voltage-dependent fluorescence change	comment in words: fluorescence signal, membrane binding/staining, behaviour
CCCCN(CCCC)c1ccc2cc(C=Cc3cc[n+](CCCS(=O)(=O)[O-])cc3)ccc2c1 [Di-4-ANEPPS, 4-(2-(6-(dibutylamino)-2-naphthalenyl)ethenyl)-1-(3-sulfopropyl)pyridinium hydroxide inner salt, reference compound]	biphasic	
CN(CCCCCCCCCCCCNC(=O)CCCCCCCCCCCNC(=O)COCCOCCNC(=O)CCc1c([N+](=O)[O-])cc([N+](=O)[O-])c([N-]c2c([N+](=O)[O-])cc([N+](=O)[O-])cc2[N+](=O)[O-])c1[N+](=O)[O-])c1ccc2cc(/C=C/c3cc[n+](CCOCCOCCO)cc3)ccc2c1 [PY6242]		Not binding; also recorded: Low fluorescence
CN(CCCCCCCCCCCCNC(=O)CCCCCCCCCCCNC(=O)CCc1c([N+](=O)[O-])cc([N+](=O)[O-])c(Nc2c([N+](=O)[O-])cc([N+](=O)[O-])cc2[N+](=O)[O-])c1[N+](=O)[O-])c1ccc2cc(/C=C/c3cc[n+](CCCCS(=O)(=O)[O-])cc3)ccc2c1 [PY6256]		FAST, and Linear; also recorded: Low Fluorescence
CC[N+](CC)(CC)CCC[n+]1ccc(/C=C/c2ccc3cc(N(C)CCCCCCCCCCCCNC(=O)CCc4c([N+](=O)[O-])cc([N+](=O)[O-])c(Nc5c([N+](=O)[O-])cc([N+](=O)[O-])cc5[N+](=O)[O-])c4[N+](=O)[O-])ccc3c2)cc1 [TBFQ 14]		nonfluorescent; also recorded: TBFQ 14 (PY6017); No fluorescence signal
CC[N+](CC)(CC)CCC[n+]1ccc(/C=C/c2ccc3cc(N(C)CCCCCCCCCCCCNC(=O)CCCCCCCCCCCNC(=O)CCc4c([N+](=O)[O-])cc([N+](=O)[O-])c(Nc5c([N+](=O)[O-])cc([N+](=O)[O-])cc5[N+](=O)[O-])c4[N+](=O)[O-])ccc3c2)cc1 [TBFQ 15]	biphasic	Electrochromic behavior

“Also recorded” adds a separate entry of the source. Structures can show the parent of a compound that is named as a salt.
